Where “and” joins values, the source holds several entries; their conditions need not be identical. Equal entries are not always repeated. Further values from the same series stand in other lists.
Biological target: T1, SBC2 (Homo sapiens, UniProt O14508)
T1 construct: SOCS2 (amino acids 32–198); His6 (N, cleaved yes); made in house; host or cells: E. coli BL21(DE3)
Assay: Covalent fluorescence polarization (FP) probe displacement assay
Type: binding
From the text: With the specific covalent modification of Cys111 established, we decided to fully characterize MN551 as a covalent SOCS2 inhibitor. […] (Fig. 2g, h, Supplementary Fig. 9). Due to the covalent nature of the competing inhibitor, a time-dependent reduction in the fraction of protein-bound probe is observed. […] This value illustrates reasonable specificity for a covalent inhibitor, with nonetheless scope for future optimization. In addition to characterizing the kinetic covalency parameters, we have also assessed the stability of the MN551 by monitoring its reactivity (half-life >70 min) with reduced glutathione (GSH) (Supplementary Fig. 10)[35].
To monitor the SBC2-ligand binding kinetics we designed a fluorescein-labeled small-molecule probe - compound 26. The fluorescence polarization (anisotropy) of a threefold serial dilution of 50 µM SBC2 in 10 nM of the probe in 100 mM HEPES pH 7.5, 50 mM NaCl, 0.5 mM TCEP, 2% DMSO was measured to determine the KL (Supplementary Fig. 9A) (BMG Labtech PHERAstar – firmware v1.33). Protein titration and the curves were fitted using GraphPad Prism 9, using one-site fitting models to determine the probe binding constant, KL. Samples were run in triplicate in 384 well plates, using a total volume per well of 16 μL. The bound fraction of the probe is measure using the equation:1 Fb=Af−A/Af−Ab Where,
A time-dependent reduction in probe anisotropy were measured for a 2-fold serial dilution of […] compound MN551 in 10 nM probe +300 μM SBC2. To determine the initial reversible binding affinity, the initial bound fraction of the probe at time = 0, Fbo (the y-intercept in Fb v/s Time plot, Supplementary Fig. 9B) was plotted against MN551 concentration, and the obtained IC50 is then converted to Ki (Supplementary Fig. 9C)[17]. The slope from Fb versus time graph when divided by Fbo gives rate of covalency, kobs. A plot of kobs v/s MN551 concentration using Michaelis–Menten model of GraphPad Prism 9, provides the parameters kinact (maximum potential rate of inactivation) and KI (concentration of MN551 at which kobs = kinact/2) (Supplementary Fig. 9D, E).
The observed first-order rate constant, kobs is related to KI and kinact by the equation:2 kobs=kinactI/KI+I
At [I]«[KI] the above equation is converted to3 […]
The slope from the plot of kobs against concentration of MN551 gives us the covalent efficiency parameter kinact/KI (Supp Fig. 9F)[30],[33].

Chains of the proteins cited; added tags and fusions are not shown. Residues count along the entry.
UniProt O14508, 32-198: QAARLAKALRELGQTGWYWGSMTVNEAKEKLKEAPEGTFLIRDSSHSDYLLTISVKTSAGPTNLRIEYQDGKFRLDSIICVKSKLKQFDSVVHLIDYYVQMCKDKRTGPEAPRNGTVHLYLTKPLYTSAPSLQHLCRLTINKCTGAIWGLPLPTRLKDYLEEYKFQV

[1] = MN551 260.308 nM; Cycle 16 (75 min); n=1
[2] = MN551 364.432 nM, Cycle 8 (35 min)
[3] = MN551 364.432 nM, Cycle 9 (40 min)
[4] = MN551 364.432 nM, Cycle 10 (45 min)
[5] = MN551 364.432 nM, Cycle 11 (50 min)
[6] = MN551 364.432 nM, Cycle 16 (75 min), n=1
[7] = MN551 364.432 nM, Cycle 17 (80 min), n=1
[8] = MN551 364.432 nM, Cycle 18 (85 min), n=1
[9] = MN551 364.432 nM; Cycle 7 (30 min)
[10] = MN551 364.432 nM; Cycle 8 (35 min)
[11] = MN551 364.432 nM; Cycle 9 (40 min)
[12] = MN551 364.432 nM; Cycle 10 (45 min)
[13] = MN551 364.432 nM; Cycle 11 (50 min)
[14] = MN551 364.432 nM; Cycle 12 (55 min); n=1
[15] = MN551 364.432 nM; Cycle 13 (60 min); n=1
[16] = MN551 364.432 nM; Cycle 14 (65 min); n=1
[17] = MN551 364.432 nM; Cycle 15 (70 min); n=1
[18] = MN551 364.432 nM; Cycle 16 (75 min); n=1
[19] = MN551 390.625 nM, Cycle 8 (35 min)
[20] = MN551 390.625 nM, Cycle 9 (40 min)
[21] = MN551 390.625 nM, Cycle 10 (45 min)
[22] = MN551 390.625 nM; Cycle 6 (25 min)
[23] = MN551 390.625 nM; Cycle 7 (30 min)
[24] = MN551 390.625 nM; Cycle 8 (35 min)
[25] = MN551 390.625 nM; Cycle 9 (40 min)

With `O=C(CCl)Nc1cccc(CNC(=O)[C@H](Cc2ccc(OP(=O)(O)O)cc2)NC(=O)Cc2ccc(F)cc2)c1` [MN551] the Anisotropy [1] was 263.7 and 246.3 and 246.4, the “Anisotropy based on Raw Data (485)” value [1] was 259 and 258.7 and 254.8 and the “Anisotropy data 485,520,520” value (MN551 260.308 nM; Cycle 20 (95 min); n=1) was 254 and 251.2 and 250.6. For the same compound, the Fb (MN551 364.432 nM, Cycle 7 (30 min)) was 0.8196 and 0.745 and 0.7734, the “Anisotropy based on Raw Data (485)” value [2] was 263.9 and 262.1 and 262.5 and the Fb [2] was 0.7783 and 0.7279 and 0.7451. The “Anisotropy based on Raw Data (485)” value [3] was 261.8 and 260.7, the Fb [3] was 0.7904 and 0.7381 and 0.7122 and the “Anisotropy based on Raw Data (485)” value [4] was 260.2 and 258.5 and 259.8. For the same compound, the Fb [4] was 0.7966 and 0.7395 and 0.7573, the “Anisotropy based on Raw Data (485)” value [5] was 259.3 and 257.9 and 257.7 and the Fb [5] was 0.7917 and 0.733 and 0.7348. For the same compound, the Anisotropy (MN551 364.432 nM, Cycle 13 (60 min), n=1) was 257.7 and 255.4 and 251.9, the Anisotropy (MN551 364.432 nM, Cycle 14 (65 min), n=1) was 254.8 and 253.5 and 249.2 and the Anisotropy (MN551 364.432 nM, Cycle 15 (70 min), n=1) was 253.3 and 253.8 and 250.7. The Anisotropy [6] was 253.2 and 253.4 and 248.5, the “Normalised anisotropy (0 nM MN551 = 1, free probe = 0)” value [6] was 0.7894 and 0.8114 and 0.761 and the Anisotropy [7] was 252.9 and 247.9 and 248.8. For the same compound, the “Anisotropy based on Raw Data (485)” value [7] was 254.5 and 251.7 and 253.6, the “Normalised anisotropy (0 nM MN551 = 1, free probe = 0)” value [7] was 0.8087 and 0.7507 and 0.7881 and the Anisotropy [8] was 250.5 and 248.8 and 248.1. For the same compound, the “Normalised anisotropy (0 nM MN551 = 1, free probe = 0)” value [8] was 0.7948 and 0.7759 and 0.805, the “Fb, fraction bound” value (MN551 364.432 nM; Cycle 4 (15 min)) was 0.8802 and 0.8605 and 0.8798 and the “Fb, fraction bound” value (MN551 364.432 nM; Cycle 5 (20 min)) was 0.8514 and 0.8585 and 0.8503. For the same compound, the “Fb, fraction bound” value (MN551 364.432 nM; Cycle 6 (25 min)) was 0.8581 and 0.8628 and 0.8397, the “Anisotropy data 485,520,520” value [9] was 263.4 and 251 and 253.3 and the Fb [9] was 0.8829 and 0.862 and 0.9413. The “Fb, fraction bound” value [9] was 0.8346 and 0.839 and 0.8486, the Anisotropy [10] was 262.8 and 262.5 and 259.2 and the “Anisotropy data 485,520,520” value [10] was 259.5 and 248.8 and 251.3. The Fb [10] was 0.8565 and 0.8782 and 0.9536 and 0.8667 and 0.8418 and 0.8403, the Anisotropy [11] was 261 and 261.7 and 259.8 and the “Anisotropy data 485,520,520” value [11] was 260.7 and 248.6 and 247.4. The Fb [11] was 0.8462 and 0.8806 and 0.93 and 0.8566 and 0.8291 and 0.8422, the Anisotropy [12] was 261.6 and 259.6 and 255.7 and the “Anisotropy data 485,520,520” value [12] was 258.2 and 246.6 and 249.6. For the same compound, the Fb [12] was 0.8555 and 0.8547 and 0.9469 and 0.8594 and 0.823 and 0.8081, the Anisotropy [13] was 258.9 and 259.3 and 254.3 and the “Anisotropy data 485,520,520” value [13] was 257.4 and 247.5 and 246.7. For the same compound, the Fb [13] was 0.8406 and 0.8336 and 0.8133, the Fb (MN551 364.432 nM; Cycle 11 (50 min); column head blank in this cycle) was 0.8416 and 0.8648 and 0.908 and the Anisotropy [14] was 255.9 and 243.7 and 246.3. The “Anisotropy based on Raw Data (485)” value [14] was 259.7 and 256.8, the Anisotropy [15] was 253.9 and 241.9 and 243.7 and the “Anisotropy based on Raw Data (485)” value [15] was 259 and 253.7 and 255.5. The Anisotropy [16] was 256.9 and 241.2 and 244, the “Anisotropy based on Raw Data (485)” value [16] was 254.6 and 255 and 254.2 and the Anisotropy [17] was 254 and 241.3 and 242.7. The “Anisotropy based on Raw Data (485)” value [17] was 256 and 253.4 and 256.6, the Anisotropy [18] was 252.5 and 240.2 and 242 and the “Anisotropy based on Raw Data (485)” value [18] was 255.9 and 251.1 and 251.4. For the same compound, the “Anisotropy data 485,520,520” value (MN551 364.432 nM; Cycle 20 (95 min); n=1) was 247.9 and 247 and 245.6, the Fb (MN551 390.625 nM, Cycle 7 (30 min)) was 0.781 and 0.8732 and 0.8527 and the “Anisotropy based on Raw Data (485)” value [19] was 271.5 and 272 and 265.7. The Fb [19] was 0.7988 and 0.8933 and 0.8448, the “Anisotropy based on Raw Data (485)” value [20] was 266.2 and 269.5 and 265.7 and the Fb [20] was 0.7492 and 0.887 and 0.8552. The “Anisotropy based on Raw Data (485)” value [21] was 264.9 and 267.4 and 264.5, the Fb [21] was 0.7389 and 0.8588 and 0.8631 and the Anisotropy (MN551 390.625 nM, Cycle 13 (60 min), n=1) was 266.6 and 265.1 and 265.6. For the same compound, the Anisotropy (MN551 390.625 nM, Cycle 14 (65 min), n=1) was 267.7 and 262.3 and 262.8, the Anisotropy (MN551 390.625 nM, Cycle 15 (70 min), n=1) was 266.7 and 262 and 260.6 and the Anisotropy (MN551 390.625 nM, Cycle 16 (75 min), n=1) was 263.9 and 260.3 and 259.4. The Anisotropy (MN551 390.625 nM, Cycle 17 (80 min), n=1) was 264.7 and 260.5 and 260.6, the Anisotropy (MN551 390.625 nM, Cycle 18 (85 min), n=1) was 261.3 and 257.1 and 256.1 and the “Fb, fraction bound” value (MN551 390.625 nM; Cycle 4 (15 min)) was 0.9724 and 0.9343 and 0.9269. The “Fb, fraction bound” value (MN551 390.625 nM; Cycle 5 (20 min)) was 0.9453 and 0.958 and 0.944, the “Anisotropy data 485,520,520” value [22] was 270.2 and 269.8 and 273.3 and the Fb [22] was 0.9071 and 0.8852 and 0.9154. The “Fb, fraction bound” value [22] was 0.9555 and 0.9553 and 0.9105, the “Anisotropy data 485,520,520” value [23] was 268.8 and 270.1 and 270.7 and the Fb [23] was 0.9366 (2×) and 0.91. For the same compound, the “Fb, fraction bound” value [23] was 0.9485 and 0.9289 and 0.9249, the Anisotropy [24] was 275.3 and 272.2 and 270.7 and the “Anisotropy data 485,520,520” value [24] was 268.6 and 269.4 and 269.6. For the same compound, the Fb [24] was 0.9174 and 0.8949 and 0.9198 and 0.9596 and 0.9219 and 0.9164, the Anisotropy [25] was 270.8 and 271.6 and 268.5 and the “Anisotropy data 485,520,520” value [25] was 265.9 and 265.5 and 267.9. The Fb [25] was 0.9133 and 0.8723 and 0.9099 and 0.9047 and 0.931 and 0.907 and the Anisotropy (MN551 390.625 nM; Cycle 10 (45 min)) was 272.7 and 270.9 and 268.2.

Reference: publication PMC10564737, “Structure-based design of a phosphotyrosine-masked covalent ligand targeting the E3 ligase SOCS2” (Nature Communications, 2023)
